Source: US10550091B2, “1,4,5-substituted 1,2,3-triazole analogues as antagonists of the pregnane X receptor” (ST. JUDE CHILDREN'S RESEARCH HOSPITAL, priority 2016, dated 2020)

System: HepG2 cells
Assay: HepG2 cytotoxicity assay (CellTiter Glo)
Format: cell-based, human
Details: positive control, HepG2, 72 h

## CN[C@@H]1C[C@H]2O[C@@](C)([C@@H]1OC)n1c3ccccc3c3c4c(c5c6ccccc6n2c5c31)C(=O)NC4 [Staurosporine, reference compound]
  IC50: 96 nM
